Measured values as given in patent US8772241B2, “Peptide and use thereof” (Ensoltek Co., Ltd., priority 2010, dated 2014).
Some results were stated once for a whole list of compounds, not compound by compound.

Tested on: type II collagen (COL2A1)
Assay: Articular chondrocyte pellet, RT-PCR expression of type II collagen
Details: statistical statement, p<0.05, LSD

Row | Substance | expression of type II collagen, as compared to the non-treated group
1 | Asp-Leu-Arg-Leu-Asp (DLRLD; Artificial peptide sequence prepared by coupling amino acid units one by one from the C-terminal, by Fmoc SPPS (9-flourenlymethyloxycarbonyl solid phase peptide synthesis) using an automated peptide synthesizer.) [Example 11] | significant increase
2 | Asp-Leu-Arg-Leu-Glu (DLRLE; Artificial peptide sequence prepared by coupling amino acid units one by one from the C-terminal, by Fmoc SPPS (9-flourenlymethyloxycarbonyl solid phase peptide synthesis) using an automated peptide synthesizer.) [Example 12] | significant increase
3 | Asp-Leu-His-Leu-Asp (DLHLD; Artificial peptide sequence prepared by coupling amino acid units one by one from the C-terminal, by Fmoc SPPS (9-flourenlymethyloxycarbonyl solid phase peptide synthesis) using an automated peptide synthesizer.) [Example 7] | significant increase
4 | Asp-Leu-His-Leu-Glu (DLHLE; Artificial peptide sequence prepared by coupling amino acid units one by one from the C-terminal, by Fmoc SPPS (9-flourenlymethyloxycarbonyl solid phase peptide synthesis) using an automated peptide synthesizer.) [Example 8] | significant increase
5 | Asp-Leu-Lys-Leu-Asp (DLKLD; Artificial peptide sequence prepared by coupling amino acid units one by one from the C-terminal, by Fmoc SPPS (9-flourenlymethyloxycarbonyl solid phase peptide synthesis) using an automated peptide synthesizer.) [Example 9] | significant increase
6 | Asp-Leu-Lys-Leu-Glu (DLKLE; Artificial peptide sequence prepared by coupling amino acid units one by one from the C-terminal, by Fmoc SPPS (9-flourenlymethyloxycarbonyl solid phase peptide synthesis) using an automated peptide synthesizer.) [Example 10] | significant increase
7 | Glu-Leu-Arg-Leu-Asp (ELRLD; Artificial peptide sequence prepared by coupling amino acid units one by one from the C-terminal, by Fmoc SPPS (9-flourenlymethyloxycarbonyl solid phase peptide synthesis) using an automated peptide synthesizer.) [Example 5] | significant increase
8 | Glu-Leu-His-Leu-Glu (ELHLE; Artificial peptide sequence prepared by coupling amino acid units one by one from the C-terminal, by Fmoc SPPS (9-flourenlymethyloxycarbonyl solid phase peptide synthesis) using an automated peptide synthesizer.) [Example 2] | significant increase
9 | Glu-Leu-Lys-Leu-Asp (ELKLD; Artificial peptide sequence prepared by coupling amino acid units one by one from the C-terminal, by Fmoc SPPS (9-flourenlymethyloxycarbonyl solid phase peptide synthesis) using an automated peptide synthesizer.) [Example 3] | significant increase
10 | Glu-Leu-Lys-Leu-Glu (ELKLE; Artificial peptide sequence prepared by coupling amino acid units one by one from the C-terminal, by Fmoc SPPS (9-flourenlymethyloxycarbonyl solid phase peptide synthesis) using an automated peptide synthesizer.) [Example 4] | significant increase
